In article PMC7862700:
The list shows a part of the results, in another mix than the full data. For part of these data: At the low end of the ranking, values are background and their order means little. The list shows a part of the results. For part of these data: The source does not settle which construct or isoform was used.

Protein sequences, listed by entry. Tags and fused reporters are not part of them. Lines headed by an entry give the natural chain unless they say otherwise; changes in a name come on top.
UniProt Q00613: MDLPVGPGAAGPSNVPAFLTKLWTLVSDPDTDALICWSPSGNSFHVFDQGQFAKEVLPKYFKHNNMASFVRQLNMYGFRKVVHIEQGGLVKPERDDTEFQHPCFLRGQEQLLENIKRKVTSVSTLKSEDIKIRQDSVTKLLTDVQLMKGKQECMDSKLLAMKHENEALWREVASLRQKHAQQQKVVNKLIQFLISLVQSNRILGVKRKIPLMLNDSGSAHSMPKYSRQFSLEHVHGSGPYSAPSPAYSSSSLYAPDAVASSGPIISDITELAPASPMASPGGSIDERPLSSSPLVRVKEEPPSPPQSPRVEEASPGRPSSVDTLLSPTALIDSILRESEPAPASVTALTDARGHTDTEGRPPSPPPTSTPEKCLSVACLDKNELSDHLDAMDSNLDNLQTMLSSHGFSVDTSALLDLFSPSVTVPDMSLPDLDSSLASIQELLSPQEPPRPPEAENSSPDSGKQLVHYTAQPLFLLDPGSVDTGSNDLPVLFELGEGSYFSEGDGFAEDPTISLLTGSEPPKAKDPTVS

These sequences were tested against HSF1 (UniProt Q00613) (assay: DAPPL (digital affinity profiling via proximity ligation, sequencing)). Details: 10 mM Tris-HCl pH 7.5, 50 mM NaCl, 1 mM DTT, 4% glycerol, room temperature, 30 min; GST-TFs on glutathione beads, 16-mer random dsDNA library, 0.1% …; high values mean tight binding; double strand, one strand shown; scale: fold enrichment (6-mer frequency, TF over GST control).
TGAAGA was tested, and the binding signal was 1.09.
GTAATA showed a binding signal of 1.24.
In the case of CGGAAG, the binding signal is reported as 0.642.
AATGAC was tested, and the binding signal was 1.22.
AAAGTC was tested, and the binding signal was 0.982.
With CAACCC the binding signal was 0.908.
In the case of GTGACT, the binding signal is reported as 0.684.
With CTTTAG the binding signal was 1.37.
With GTCACT the binding signal was 0.841.
Work on CAACCG yielded a binding signal of 0.741.
With TGGTAA the binding signal was 1.45.

What follows are sequences tested against T1, ELF2 (UniProt Q15723) in the same assay as above. Details: 10 mM Tris-HCl pH 7.5, 50 mM NaCl, 1 mM DTT, 4% glycerol, room temperature, 30 min; GST-TFs on glutathione beads, 16-mer random dsDNA library, 0.1% …; high values mean tight binding; double strand, one strand shown; scale: fold enrichment (6-mer frequency, TF over GST control).
T1 sequence: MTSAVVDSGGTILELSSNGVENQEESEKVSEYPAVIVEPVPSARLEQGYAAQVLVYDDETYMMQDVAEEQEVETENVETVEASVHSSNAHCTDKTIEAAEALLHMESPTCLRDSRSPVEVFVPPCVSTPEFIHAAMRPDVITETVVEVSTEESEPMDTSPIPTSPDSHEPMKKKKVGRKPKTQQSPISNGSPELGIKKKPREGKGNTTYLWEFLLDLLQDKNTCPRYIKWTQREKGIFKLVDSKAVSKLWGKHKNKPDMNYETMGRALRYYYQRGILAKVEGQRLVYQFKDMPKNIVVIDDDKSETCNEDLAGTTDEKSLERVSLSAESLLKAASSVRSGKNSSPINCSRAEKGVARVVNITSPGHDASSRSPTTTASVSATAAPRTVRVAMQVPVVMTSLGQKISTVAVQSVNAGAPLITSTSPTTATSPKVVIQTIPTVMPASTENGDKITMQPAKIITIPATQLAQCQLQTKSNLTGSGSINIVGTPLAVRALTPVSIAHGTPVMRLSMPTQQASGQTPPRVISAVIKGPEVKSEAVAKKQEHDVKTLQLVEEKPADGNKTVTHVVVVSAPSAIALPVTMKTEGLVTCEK
TATTTG was tested, and the binding signal was 1.41.
With TGAAGA the binding signal was 0.929.
With AAGCTA the binding signal was 1.13.
Sequence GTAATA has a binding signal of 1.22.
For CGGAAG, the binding signal was 4.9.
Sequence GTTACT has a binding signal of 1.23.
CGAAGG gave a binding signal of 0.92.
TCTATG showed a binding signal of 1.07.
TTCATT showed a binding signal of 1.21.
TAAATC showed a binding signal of 1.24.
In the case of GTTGCT, the binding signal is reported as 1.28.
In the case of AATGAC, the binding signal is reported as 1.36.
For CTCGGG, the binding signal was 0.964.
Work on AAAGTC yielded a binding signal of 0.877.
For TCTAAC, the binding signal was 1.15.
In the case of AGTACT, the binding signal is reported as 1.25.
In the case of CTCACA, the binding signal is reported as 1.2.
GCTTCT was tested, and the binding signal was 1.52.
Work on AGTCTC yielded a binding signal of 0.964.
GAGAAA was tested, and the binding signal was 0.675.
CAGAAA was tested, and the binding signal was 0.957.
CAACCC was tested, and the binding signal was 1.27.
In the case of GTGACT, the binding signal is reported as 0.952.
Sequence CTTTAG has a binding signal of 1.13.
Work on ACTCCA yielded a binding signal of 1.11.
TGGATA showed a binding signal of 1.04.
CATTAA gave a binding signal of 0.997.
With GTCACT the binding signal was 1.09.
With CATAAG the binding signal was 0.913.
Work on TGATGA yielded a binding signal of 1.21.
Work on AGTTAA yielded a binding signal of 1.06.
CAACCG showed a binding signal of 1.07.
Sequence TGGTAA has a binding signal of 1.2.
Sequence GAGAAT has a binding signal of 0.706.
CGAATT gave a binding signal of 1.2.
ATAGTT was tested, and the binding signal was 1.25.
Sequence AGGAAT has a binding signal of 0.842.
Work on GACATT yielded a binding signal of 1.16.
TCTTTT showed a binding signal of 1.46.
GTCTAG gave a binding signal of 0.832.
